The source of these data is patent US20110086026A1 (ROCHE PALO ALTO, published 2011).

This experiment concerns the target Cynomolgus IL-13Rα1 expressed in transfected Ba/F3 cells (Cynomolgus). The experiment can be described thus: FACS on transfected Ba/F3 cells, 10 µg/ml.

Results are given in words; binding and its absence hold for the method and conditions named. Some binding calls cover weakened binding; strength is not graded here.

B1: HuMab LC5002-002 (antibody, human IgG1, V domains shown)
VH: EVQLLESGGGLVQPGGSLRLSCAASGFTFNIYAMNWVRQAPGKGLEWVSVISGRGITTYYADSVKGRFTISRDNSKNTLYLQMNSLRADDTAVYYCAKGSSSWTDFDYWGQGTLVTVSS
VL: DIQMTQSPSSLSASVGDRVTITCRASQGISRWVAWYQQKPEKAPKSLIYAASSLQSGVPSRFSGSGSGTDFTLTISSLQPEDFATYYCQQYNSYPWTFGQGTKVEIK
notes: Human IgG1 kappa from a HuMab mouse hybridoma; Only the variable domains are tied to this antibody; also called hu-MAB<h-IL-13R alpha>LC.5002-002 (DSM ACC2709)
Regarding B1, the binding result is “binds”.
